In US8609682B2 (priority 2008, dated 2013):

Test system: guinea pig ileum longitudinal muscle strips
Experiment: Guinea pig ileum (GPI) assay
Parameters: species or system Hartley guinea pig
Conditions: Cavia porcellus

SMILES: CN1CC[C@]23c4c5ccc(O)c4O[C@H]2[C@@H](O)C=C[C@H]3[C@H]1C5 [morphine, reference compound]
- IC50: 50.6 nM
